# Values quoted from earlier work, collected in US8497092B2, “Method of bioassaying yokukansan” (Tsumura & Co., priority 2008, dated 2013).
# At least one structure is not confirmed: it was looked up by name or label, or the drawing left a doubt.
# Tested on: PC12 cells
# Conditions: Non-Patent Documents 1 to 3; cited from earlier work
structure (smiles),measurement,value
O=C(O)[C@H]1O[C@@H](Oc2cc3oc(-c4ccc(O)cc4)cc(=O)c3c(O)c2O)[C@H](O)[C@@H](O)[C@@H]1O [scutellarin],inhibition of cell death caused by glutamate,cell death is inhibited
